{"source": "paper PMC7819943", "about": "“Rice protein-binding microarrays: a tool to detect cis-acting elements near promoter regions in rice”", "note": "The other results are listed elsewhere or left out."}
{"target": "T1, OsSMF1 (Oryza sativa, UniProt Q6ZLB0 1-436)", "T1 sequence": "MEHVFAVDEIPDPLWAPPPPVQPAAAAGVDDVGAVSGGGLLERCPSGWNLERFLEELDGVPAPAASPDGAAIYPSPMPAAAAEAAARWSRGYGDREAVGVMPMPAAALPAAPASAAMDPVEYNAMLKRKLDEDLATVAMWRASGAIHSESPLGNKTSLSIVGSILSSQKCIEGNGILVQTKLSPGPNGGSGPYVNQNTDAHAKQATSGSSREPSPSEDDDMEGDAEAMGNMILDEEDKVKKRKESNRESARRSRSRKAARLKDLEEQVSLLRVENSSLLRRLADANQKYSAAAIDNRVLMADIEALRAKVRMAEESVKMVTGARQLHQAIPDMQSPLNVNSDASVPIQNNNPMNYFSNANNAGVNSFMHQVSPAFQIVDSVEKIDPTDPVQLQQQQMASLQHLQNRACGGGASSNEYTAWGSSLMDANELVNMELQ", "assay": "protein-binding microarray (RPBM); PBS, 2% BSA, 51.3 ng/ul salmon testes DNA, 50 uM zinc acetate, 200 nM TF, 25 C, 1 h; high values mean tight binding", "settings": "protein: recombinant; tags: N-terminal polyhistidine and DsRed monomer fusion (pET32a); chain copies: 2; label: CyDye5-dUTP incorporated in the synthesized complementary strand; 3' TTTTT single-stranded linker to array surface; dsDNA, one strand shown", "in_short": "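Binding signal is defined as the fluorescence intensity of each feature in arbitrary units, read on an Axon 4000B scanner. Transcription factors with N-terminal polyhistidine and DsRed fusions came from E. coli BL21-CodonPlus and were purified on Ni–NTA. They were incubated at 200 nM for 1 h at 25 °C on a custom Agilent array that had been made double-stranded with Cy5-dUTP, with 50 µM zinc acetate present, and the array was washed.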"}
{"sequence": "AGAACGAAACAAACTCGGCATCTCCATCGTGCCATCCACCCGGAGTCACCTAGTGCAG", "binding signal": "3420 fluorescence intensity (a.u.)"}
{"sequence": "TGTGGTATGTGGAGCCAAAGCTAATGACAGGGGACCAGCACGGAGTCACCTAGTGCAG", "binding signal": "3240 fluorescence intensity (a.u.)"}
{"sequence": "TATTCATTTCCCATTGTTCTCCTCATTAGTCATTAATCTGCGGAGTCACCTAGTGCAG", "binding signal": "3390 fluorescence intensity (a.u.)"}
{"sequence": "TGACTTCCTCAGTCTTAGTCATTAGTGTACCCCTTGTATTCGGAGTCACCTAGTGCAG", "binding signal": "4800 fluorescence intensity (a.u.)"}
{"sequence": "ATCATTTATTTTATTATGACTTGATTCGTCATCAAATGTTCGGAGTCACCTAGTGCAG", "binding signal": "6360 fluorescence intensity (a.u.)"}
{"sequence": "TACTATACATCTGATGGCCTGGTGCAGTTCTTTGATGAAACGGAGTCACCTAGTGCAG", "binding signal": "3620 fluorescence intensity (a.u.)"}
{"sequence": "TCTCGCTTAATGTTTTCTTTACACATACGATGCTTTAGATCGGAGTCACCTAGTGCAG", "binding signal": "3790 fluorescence intensity (a.u.)"}
{"sequence": "CCCCATTTTCTTTGTTTCTACTTCTCTTTCCCTTTCTTGTCGGAGTCACCTAGTGCAG", "binding signal": "3390 fluorescence intensity (a.u.)"}
{"sequence": "TCATTAACATCAATATGAATGTGAGAAATGCTAGAATGACCGGAGTCACCTAGTGCAG", "binding signal": "3240 fluorescence intensity (a.u.)"}
{"sequence": "AGGACGGCCGACCGCGTCACCATGATGTGCCACCTCGACGCGGAGTCACCTAGTGCAG", "binding signal": "13700 fluorescence intensity (a.u.)"}
{"sequence": "GATGAGATCCCTCGTGGCATGCATTCAAGTATAGTTGGCCCGGAGTCACCTAGTGCAG", "binding signal": "5950 fluorescence intensity (a.u.)"}
{"sequence": "ATAACCTTATTCAACTTCCGACTGACATCGTGCACGTCGGCGGAGTCACCTAGTGCAG", "binding signal": "3740 fluorescence intensity (a.u.)"}
{"sequence": "GTGGATGCAGATGAGGTGTTCGATGTAATGCCGGGGTGGTCGGAGTCACCTAGTGCAG", "binding signal": "3850 fluorescence intensity (a.u.)"}
{"sequence": "CCTCCATGACGCGTCTCACCTCCGCGGCTATCTCCCCGTACGGAGTCACCTAGTGCAG", "binding signal": "5960 fluorescence intensity (a.u.)"}
{"sequence": "TGCACAATATATGCCACGCATCTTGTAACGTAGGAAATGCCGGAGTCACCTAGTGCAG", "binding signal": "4320 fluorescence intensity (a.u.)"}
{"sequence": "GTATGCATGAGAGCATGACACTAACTAGCTAGAAGAACACCGGAGTCACCTAGTGCAG", "binding signal": "3150 fluorescence intensity (a.u.)"}
{"sequence": "GATAGAACGACTCCTCAAACTATTGAAACCGGTGCAATTTCGGAGTCACCTAGTGCAG", "binding signal": "23000 fluorescence intensity (a.u.)"}
{"sequence": "GTAGTACCATGTATTAGATGGACTTCTCCACGTTTCTCTGCGGAGTCACCTAGTGCAG", "binding signal": "4980 fluorescence intensity (a.u.)"}
{"sequence": "TTTACCAACATGCCATGTGTGATATTATTGCTGAATCATCCGGAGTCACCTAGTGCAG", "binding signal": "6790 fluorescence intensity (a.u.)"}
{"sequence": "TCCAACCATATGCCGCCACGTGTCCGGGCCCCGCAAGTCACGGAGTCACCTAGTGCAG", "binding signal": "14100 fluorescence intensity (a.u.)"}
{"sequence": "TGTTAGGGTGGGGTACTGCCTACGTGGGCCAATGCCTTCTCGGAGTCACCTAGTGCAG", "binding signal": "5710 fluorescence intensity (a.u.)"}
{"sequence": "GTATATATACACGTATACAAAGTTTATATATGACGTATACCGGAGTCACCTAGTGCAG", "binding signal": "6040 fluorescence intensity (a.u.)"}
{"sequence": "TTCCTCCTTTCTCCGTCCACTCGCCGGAGTGAGTCACTCGCGGAGTCACCTAGTGCAG", "binding signal": "10700 fluorescence intensity (a.u.)"}
{"sequence": "TCCGAGGCAGATCTCCACACGTATCTCCGCACTTGACTTTCGGAGTCACCTAGTGCAG", "binding signal": "3370 fluorescence intensity (a.u.)"}
{"sequence": "CCTAGCTAGTAGCTGCTGGTAAACTACCGTCCTGAGCAACCGGAGTCACCTAGTGCAG", "binding signal": "25700 fluorescence intensity (a.u.)"}
{"sequence": "AAATAGAACTATGTCTTTCTTTCATCATCTCCTCCCGGCTCGGAGTCACCTAGTGCAG", "binding signal": "3220 fluorescence intensity (a.u.)"}
{"sequence": "CTACACAAGTAAACTTTCAACTTTTCTGTCACATCATTTTCGGAGTCACCTAGTGCAG", "binding signal": "3780 fluorescence intensity (a.u.)"}
{"sequence": "CCTCCCAATTTGATCATGCATGGGTCCACATGCTCAATGACGGAGTCACCTAGTGCAG", "binding signal": "3700 fluorescence intensity (a.u.)"}
{"sequence": "TTGTTGGCCGGTTACCACCTTTTCACAGTCACTGCACTGCCGGAGTCACCTAGTGCAG", "binding signal": "3970 fluorescence intensity (a.u.)"}
{"sequence": "AATCGATGAGGCCCTACGTGTGTTTTCTGTCAGCTTGCTACGGAGTCACCTAGTGCAG", "binding signal": "5470 fluorescence intensity (a.u.)"}
{"sequence": "ACAGTGCAACAGTCAAAATGATCTGCAAAGAAAGTCAATGCGGAGTCACCTAGTGCAG", "binding signal": "3650 fluorescence intensity (a.u.)"}
{"sequence": "CGCGATCCTGACAGTATATTCTATCTTTGACACAGTCTGACGGAGTCACCTAGTGCAG", "binding signal": "3320 fluorescence intensity (a.u.)"}
{"sequence": "AGACTTCGGTTTGGCGACGCAACGCAACGCAGCGCAGCCGCGGAGTCACCTAGTGCAG", "binding signal": "3610 fluorescence intensity (a.u.)"}
{"sequence": "GGTATCCAGCCTTTCGGTCACCCGGACGCCACTGAAGATTCGGAGTCACCTAGTGCAG", "binding signal": "22800 fluorescence intensity (a.u.)"}
{"sequence": "GAGACTATTTGTCCCCTTGTGGTTACATGTCACTCAAATGCGGAGTCACCTAGTGCAG", "binding signal": "3550 fluorescence intensity (a.u.)"}
{"sequence": "GCTATCGGTCGCCACGTGGAGCCCAGCTGTCCACGTACAACGGAGTCACCTAGTGCAG", "binding signal": "14700 fluorescence intensity (a.u.)"}
{"sequence": "GGCGACGCCATCCGCGTCAACGTAGGAGAACATCCCCACTCGGAGTCACCTAGTGCAG", "binding signal": "3380 fluorescence intensity (a.u.)"}
{"sequence": "AGACCCAAGTCACTCTCTCCGCTCCAGTCTCCACTCTCCACGGAGTCACCTAGTGCAG", "binding signal": "23100 fluorescence intensity (a.u.)"}
{"sequence": "GAGCCGCTGCGGCGGGCACAACACAGCGCGTGCGTGGGTGCGGAGTCACCTAGTGCAG", "binding signal": "32600 fluorescence intensity (a.u.)"}
{"sequence": "TCGGTTTTGTGATCGAGGGGTCGATGACTCAATCATAAGGCGGAGTCACCTAGTGCAG", "binding signal": "5220 fluorescence intensity (a.u.)"}
{"sequence": "GGCCGCAGCCGCGTTGGCACGCGGCCCAACAACGCAGTCACGGAGTCACCTAGTGCAG", "binding signal": "4390 fluorescence intensity (a.u.)"}
{"sequence": "TTCGTCATAGTGTGGAACGACACATCATGAAGATTAGAGACGGAGTCACCTAGTGCAG", "binding signal": "3630 fluorescence intensity (a.u.)"}
{"sequence": "CCTCCGCCTCCTCCCGCGCGCTGCGTACGTGACAGCGCCACGGAGTCACCTAGTGCAG", "binding signal": "3500 fluorescence intensity (a.u.)"}
{"sequence": "TGCACAAGTCGATCGACTTGAATTCCTGCACATGAGTCACCGGAGTCACCTAGTGCAG", "binding signal": "6120 fluorescence intensity (a.u.)"}
{"sequence": "TTAACGGTTGGTAATTAGCTACGTGGATCAACGACGATACCGGAGTCACCTAGTGCAG", "binding signal": "6000 fluorescence intensity (a.u.)"}
{"sequence": "GCGTCCTGCAACATCTGACCAAGATCATCCGCAACGTCGTCGGAGTCACCTAGTGCAG", "binding signal": "3350 fluorescence intensity (a.u.)"}
{"sequence": "AGATAAGATTTATGTTCCATGTTTACTTTGTTATTTAGGACGGAGTCACCTAGTGCAG", "binding signal": "5430 fluorescence intensity (a.u.)"}
{"sequence": "TAAATTGACAAATTCAACCTAGGCCTGGACTTATTTGGCGCGGAGTCACCTAGTGCAG", "binding signal": "11500 fluorescence intensity (a.u.)"}
{"sequence": "ATATATATATTTAAGTGAATTTTATTTTAACTAAACCATACGGAGTCACCTAGTGCAG", "binding signal": "3790 fluorescence intensity (a.u.)"}
{"sequence": "TCTCTCTTACCGTCATGCTGTCTCAACAGTATATTCAAATCGGAGTCACCTAGTGCAG", "binding signal": "3470 fluorescence intensity (a.u.)"}
{"sequence": "AGGCCTCCTTCTCCCGCTGCCGGCGGTATCGCTGGTGGAGCGGAGTCACCTAGTGCAG", "binding signal": "3940 fluorescence intensity (a.u.)"}
{"sequence": "CCACAAGGCTGGAACCAGGTATAACAAGCGGAACGCCTCCCGGAGTCACCTAGTGCAG", "binding signal": "36700 fluorescence intensity (a.u.)"}
{"sequence": "TTTTCATCTATAGTCATTGTTACTTATGTTGGAGTAGTATCGGAGTCACCTAGTGCAG", "binding signal": "3380 fluorescence intensity (a.u.)"}
{"sequence": "TTGTTCCTATAGTAGCTCTCTAATCATAATCATAAGAATACGGAGTCACCTAGTGCAG", "binding signal": "3410 fluorescence intensity (a.u.)"}
